# Earlier results in patent US12622907B2, “Hair loss therapy” (NIRMANA BIO, INC., priority 2021, dated 2026).
# Read-outs that look alike come from different tables or passages of the source. At least one structure is not confirmed: it was looked up by name or label, or the drawing left a doubt.
# Columns and labels:
# [1] = system: women with Female Pattern Hair Loss; conditions: for increase in hair density: 26 women, after 24 weeks of treatment
# patients with hair loss = conditions: oral minoxidil
smiles,measurement,setting,value
"Nc1cc(N2CCCCC2)nc(N)[n+]1[O-] [minoxidil, Minoxidil]",increase in hair density,[1]; oral minoxidil 1 mg,12%
same,"hair shedding, oral group versus topical group","[1]; oral minoxidil group, 24 weeks",less hair shedding
same,increase in hair density,[1]; topical minoxidil 5% solution (1 ml) once a day,7.2%
same,effect of oral 1 mg versus topical 5% solution (1 ml) once a day,"[1]; women with Female Pattern Hair Loss, difference not statistically significant",comparable effects
same,proportion of patients noticing a reduction in shedding,patients with hair loss; 6 months or more,about one third
same,proportion of patients noticing improved growth,patients with hair loss; in 6 months or more,a third
